# Data from PubChem BioAssay AID330 (DTP/NCI, 2004).
# The list does not hold the whole screen: it gathers tests that were run many times, whatever their T/C, doses with no T/C, and many T/C values between a quarter and a half above the control. Further doses and runs are listed elsewhere. T/C gives the treated animals as a percentage of the vehicle group. Some entries give survivors of the animals treated and no T/C: the source files T/C as zero there, which appears to mark a toxic dose or a test without result, not a measured value. Some survivor counts are full or nearly so, which does not show that the dose was tolerated: survival well below the control is almost never listed, so the zero probably covers shortened survival too. Survivors were counted at the toxicity check, usually on the fifth day, unless a day is given; later deaths do not show. Schedules are NCI's codes, taken here to give the interval after Q, in days (D) or hours (H), and the number of doses after X. Some doses were run more than once; the results are listed from low to high. Marks such as (2×) give the number of equal values in this list. For survival time, the PubChem record calls one and a half times the control and up active, and a quarter to a half above the control has no call in these data; cut-offs in other NCI protocols can differ. Some T/C values are followed by the survivors on the day toxicity was checked, most often the fifth; without a count, all were alive then.
# System: P388 leukemia ip, CD2F1 mice, survival T/C
# Experiment: NCI In Vivo Anticancer Drug Screen. Data for tumor model P388 Leukemia (intraperitoneal) in CD2F1 (CDF1) mice
# Conditions: T/C endpoint: median survival time, higher T/C = longer survival
# [1] = dose: 200.0 mg/kg/injection, schedule: Q01DX005 (ip), vehicle: saline with Tween-80
# [2] = dose: 600.0 mg/kg/injection, schedule: Q01DX009 (ip), vehicle: saline
# [3] = dose: 100.0 mg/kg/injection, schedule: Q01DX005 (ip), vehicle: Klucel (hydroxypropylcellulose) (HPC)
smiles,measurement,setting,value
CCCCCCCCCCCCn1ccnc1,survivor count,"dose: 400.0 mg/kg/injection, schedule: Q04DX003 (ip), vehicle: saline with Tween-80",0 of 6
CC(C)NC(=O)OCc1c(COC(=O)NC(C)C)c2n(c1-c1ccc(Cl)c(Cl)c1)CCS2=O (stereo not given),survivor count,[1],6 of 6
CCOc1c(N=Nc2ccc(Cl)cc2)c(C)nn1C(=S)SC,survivor count,"dose: 30.0 mg/kg/injection, schedule: Q01DX005 (ip), vehicle: Klucel + Tween-80",6 of 6
same,survivor count,"dose: 60.0 mg/kg/injection, schedule: Q01DX005 (ip), vehicle: Klucel + Tween-80",6 of 6
same,survivor count,"dose: 120.0 mg/kg/injection, schedule: Q01DX005 (ip), vehicle: Klucel + Tween-80",0 of 6
same,survivor count,"dose: 240.0 mg/kg/injection, schedule: Q01DX005 (ip), vehicle: Klucel + Tween-80",0 of 6
O=P(Oc1ccccc1)(Oc1ccccc1)C(O)C(Cl)(Cl)Cl (stereo not given),survivor count,"dose: 50.0 mg/kg/injection, schedule: Q01DX009 (ip), vehicle: saline with Tween-80",6 of 6
same,survivor count,"dose: 200.0 mg/kg/injection, schedule: Q01DX009 (ip), vehicle: saline with Tween-80",0 of 6
O=c1n[n+]([O-])ccn1C1OC(CO)C(O)C1O (stereo not given),T/C,"dose: 50.0 mg/kg/injection, schedule: Q01DX009 (ip), vehicle: saline",136 % of control
same,T/C,"dose: 100.0 mg/kg/injection, schedule: Q01DX009 (ip), vehicle: saline",135 and 138 % of control [5 of 6 alive]
same,T/C,"dose: 133.5 mg/kg/injection, schedule: Q01DX009 (ip), vehicle: saline",148 % of control
same,T/C,"dose: 200.0 mg/kg/injection, schedule: Q01DX009 (ip), vehicle: saline","136, 165, 167, 183 % of control"
same,T/C,"dose: 300.0 mg/kg/injection, schedule: Q01DX009 (ip), vehicle: saline",139 % of control
same,T/C,[2],95 % of control
same,survivor count,[2],0 of 6 (2×) and 3 of 10
N#CN=[N+]([O-])c1ccccc1,survivor count,"dose: 50.0 mg/kg/injection, schedule: Q04DX003 (ip), vehicle: Klucel (hydroxypropylcellulose) (HPC)",4 of 6
same,survivor count,"dose: 100.0 mg/kg/injection, schedule: Q04DX003 (ip), vehicle: Klucel (hydroxypropylcellulose) (HPC)",1 of 6
same,survivor count,"dose: 200.0 mg/kg/injection, schedule: Q04DX003 (ip), vehicle: Klucel (hydroxypropylcellulose) (HPC)",0 of 6
CCN(CC)c1ccc2cc(S(=O)(=O)c3ccc(C)cc3)c(=O)oc2c1,survivor count,"dose: 100.0 mg/kg/injection, schedule: Q01DX005 (ip), vehicle: saline with Tween-80",5 of 6
same,survivor count,[1],6 of 6
CC1=CC(C/C(C)=C/COc2ccc3ccc(=O)oc3c2)OC1=O (stereo not given),survivor count,[3],6 of 6
same,survivor count,"dose: 200.0 mg/kg/injection, schedule: Q01DX005 (ip), vehicle: Klucel (hydroxypropylcellulose) (HPC)",6 of 6
Cc1ccc(NCCN(C)C)c2c(=O)c3c(O)cccc3sc12,survivor count,"dose: 100.0 mg/kg/injection, schedule: Q01DX009 (ip), vehicle: suspension in saline",6 of 6
same,survivor count,"dose: 200.0 mg/kg/injection, schedule: Q01DX009 (ip), vehicle: suspension in saline",6 of 6
CCC/C(=N/NC(N)=O)C(OC)OC,survivor count,"dose: 150.0 mg/kg/injection, schedule: Q01DX009 (ip), vehicle: saline",6 of 6
CC(C)(C)C1=CC(=O)C(=O)C(C(C)(C)C)=C1,survivor count,"dose: 200.0 mg/kg/injection, schedule: Q01DX009 (ip), vehicle: other",0 of 6
CCc1c2c(cc3c1[nH]c1ccccc13)C(=O)NC2=O,survivor count,[3],5 of 5
O=[N+]([O-])c1ccc2c3c(ccc([N+](=O)[O-])c13)CC2,survivor count,"dose: 100.0 mg/kg/injection, schedule: Q01DX009 (ip), vehicle: Klucel (hydroxypropylcellulose) (HPC)",6 of 6
same,survivor count,"dose: 200.0 mg/kg/injection, schedule: Q01DX009 (ip), vehicle: Klucel (hydroxypropylcellulose) (HPC)",6 of 6
same,survivor count,"dose: 400.0 mg/kg/injection, schedule: Q01DX009 (ip), vehicle: Klucel (hydroxypropylcellulose) (HPC)",6 of 6
